Among the data in PMC10803725 are binding values, retold here.

For this assay, the target named is OsBAG6-2 × FLAG (rice (Oryza sativa, Kitaake)). Briefly: affinity purification with mass spectrometry; total protein of wild-type Kitaake and two independent CsVpro:OsBAG6-2 × FLAG lines in IP buffer (2 mM DTT, 150 mM NaCl, 100 mM Tris-HCl pH 7.5, 5 mM EGTA, 0.5% Triton X-100, 5 mM EDTA) on anti-FLAG M2 magnetic beads, 4 °C, 3 h.

No constants are given. Whether binding was seen depends on the method and setting. Binding seen in cells or lysates may run through a third protein. Here binding means that the protein was enriched with, or labelled near, the bait; the list need not be complete.

B1: OsPhyB (receptor, UniProt Q10MG9 1-1171)
chain: MASGSRATPTRSPSSARPAAPRHQHHHSQSSGGSTSRAGGGGGGGGGGGGGAAAAESVSKAVAQYTLDARLHAVFEQSGASGRSFDYTQSLRASPTPSSEQQIAAYLSRIQRGGHIQPFGCTLAVADDSSFRLLAYSENTADLLDLSPHHSVPSLDSSAVPPPVSLGADARLLFAPSSAVLLERAFAAREISLLNPLWIHSRVSSKPFYAILHRIDVGVVIDLEPARTEDPALSIAGAVQSQKLAVRAISRLQALPGGDVKLLCDTVVEYVRELTGYDRVMVYRFHEDEHGEVVAESRRNNLEPYIGLHYPATDIPQASRFLFRQNRVRMIADCHAAPVRVIQDPALTQPLCLVGSTLRSPHGCHAQYMANMGSIASLVMAVIISSGGDDDHNISRGSIPSAMKLWGLVVCHHTSPRCIPFPLRYACEFLMQAFGLQLNMELQLAHQLSEKHILRTQTLLCDMLLRDSPTGIVTQSPSIMDLVKCDGAALYYHGKYYPLGVTPTEVQIKDIIEWLTMCHGDSTGLSTDSLADAGYPGAAALGDAVSGMAVAYITPSDYLFWFRSHTAKEIKWGGAKHHPEDKDDGQRMHPRSSFKAFLEVVKSRSLPWENAEMDAIHSLQLILRDSFRDSAEGTSNSKAIVNGQVQLGELELRGIDELSSVAREMVRLIETATVPIFAVDTDGCINGWNAKVAELTGLSVEEAMGKSLVNDLIFKESEETVNKLLSRALRGDEDKNVEIKLKTFGPEQSKGPIFVIVNACSSRDYTKNIVGVCFVGQDVTGQKVVMDKFINIQGDYKAIVHNPNPLIPPIFASDENTCCSEWNTAMEKLTGWSRGEVVGKLLVGEVFGNCCRLKGPDALTKFMIVLHNAIGGQDCEKFPFSFFDKNGKYVQALLTANTRSRMDGEAIGAFCFLQIASPELQQAFEIQRHHEKKCYARMKELAYIYQEIKNPLNGIRFTNSLLEMTDLKDDQRQFLETSTACEKQMSKIVKDASLQSIEDGSLVLEKGEFSLGSVMNAVVSQVMIQLRERDLQLIRDIPDEIKEASAYGDQYRIQQVLCDFLLSMVRFAPAENGWVEIQVRPNIKQNSDGTDTMLFLFRFACPGEGLPPEIVQDMFSNSRWTTQEGIGLSICRKILKLMGGEVQYIRESERSFFHIVLELPQPQQAASRGTS
B1: the binding result is on record as “binds”.

B2: GLO1 (enzyme, UniProt Q10CE4 1-369)
chain: MGEITNVMEYQAIAKQKLPKMIYDYYASGAEDEWTLKENREAFSRILFRPRILIDVSKIDMSATVLGFKISMPIMIAPSAMQKMAHPDGEYATARAASAAGTIMTLSSWATSSVEEVASTGPGIRFFQLYVYKDRNVVEQLVRRAERAGFKAIALTVDTPRLGRREADIKNRFVLPPYLTLKNFEGLDLAEMDKSNDSGLASYVAGQIDRTLSWKDVKWLQSITSLPILVKGVITAEDARLAVHSGAAGIIVSNHGARQLDYVPATISALEEVVTAAAGRIPVYLDGGVRRGTDVFKALALGAAGVFIGRPVVFALAAEGEAGVRNVLRMMREEFELTMALSGCTSLADITRAHIYTDADRLARPFPRL
In the case of B2, the binding entry is “binds”.
